Data taken from US10030260B2, “Inducible reconstitution and real-time quantitative kinetic system for the study of intramembrane enzymes” (THE JOHNS HOPKINS UNIVERSITY, priority 2012, dated 2018).
At least one structure is not confirmed: it was looked up by name or label, or the drawing left a doubt. Where a SMILES comes first, the peptide text is derived from it. The star is where a group is joined. FITC = O=C1OC2(c3ccc(O)cc3Oc3cc(O)ccc32)c2ccc(NC(=S)*)cc21; βAla = NCCC(=O)O

Biological target: T1, HA-EcGlpG (Escherichia coli, UniProt P09391)
T1 construct: GST (cleaved yes); made in house; host or cells: E. coli C43 (DE3)
T1 sequence (P09391 1-276): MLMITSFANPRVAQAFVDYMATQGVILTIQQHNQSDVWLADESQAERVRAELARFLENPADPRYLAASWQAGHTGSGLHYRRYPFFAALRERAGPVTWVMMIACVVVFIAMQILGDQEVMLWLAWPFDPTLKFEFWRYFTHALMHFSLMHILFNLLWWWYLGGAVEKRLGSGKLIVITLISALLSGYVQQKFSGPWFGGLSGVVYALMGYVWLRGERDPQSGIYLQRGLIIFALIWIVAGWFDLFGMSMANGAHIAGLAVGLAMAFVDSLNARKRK
Assay: Proteolysis assay in detergent micelles
Format: biochemical
Method: Cleavage reactions of APP+Spi7-Flag were performed as described previously and imaged with an Odyssey infrared scanner (LiCor Biosciences) (Baker and Urban, 2012; Baker et al., 2007). […] Reactions were quenched and analyzed on 16% tricine gels as above. Actual substrate concentrations were calibrated using FITC-TatA standards analyzed in parallel.

CC[C@H](C)[C@H](NC(=O)[C@H](CC(C)C)NC(=O)[C@@H](NC(=O)[C@@H](NC(=O)[C@H](CC(C)C)NC(=O)[C@H](CC(C)C)NC(=O)[C@H](C)NC(=O)[C@@H](NC(=O)[C@@H](NC(=O)[C@@H](NC(=O)[C@H](CC(C)C)NC(=O)[C@H](CCC(N)=O)NC(=O)[C@H](Cc1c[nH]c2ccccc12)NC(=O)[C@@H]1CCCN1C(=O)[C@H](CO)NC(=O)CNC(=O)[C@H](Cc1ccccc1)NC(=O)[C@H](C)NC(=O)[C@H](C)NC(=O)[C@@H](NC(=O)[C@H](C)NC(=O)[C@@H](NC(=O)[C@@H](NC(=O)[C@H](CO)NC(=O)[C@H](CCC(=O)O)NC(=O)[C@H](CCSC)NC(=O)CCNC(=S)Nc1ccc2c(c1)C(=O)OC21c2ccc(O)cc2Oc2cc(O)ccc21)[C@@H](C)O)[C@@H](C)CC)[C@@H](C)O)[C@@H](C)CC)[C@@H](C)CC)[C@@H](C)CC)[C@@H](C)CC)[C@@H](C)CC)C(=O)N[C@@H](Cc1ccccc1)C(=O)NCC(=O)N[C@H](C(=O)N[C@@H](CCCCN)C(=O)N[C@@H](CCCCN)C(=O)N[C@@H](CC(C)C)C(=O)N[C@@H](CCCNC(=N)N)C(N)=O)[C@@H](C)O [FITC-TatA] ({FITC-βAla}-MESTIATAAFGSPWQLIIIALLIILIFGTKKLR-NH2)
Km: ≥ 135 µM
